Several values for one entry are separate records, joined by “and”; a condition that tells them apart may be missing. Equal entries are not always repeated. The campaign covered roughly 300,000 compounds. About 3,700 (1.2%) were called active. The shares of active, inactive and inconclusive entries below differ from those in the screen. Calls follow the shape of the full dose curve; tested in HEK293 cells. A potency beside an inconclusive call is a rough fit, not a confirmed value.
Assay: qHTS for Inhibitors of binding or entry into cells for Lassa Virus; also: nearly all actives have a fitted effect of over 50% in size
Settings: Lassa virus pseudotype entry inhibition, cell reporter; series mostly up to 37.9 µM
With CCOC(=O)c1cc2c(=O)n3ccccc3nc2n(C)c1=NC(=O)c1c(-c2c(F)cccc2Cl)noc1C the Potency was “inactive”.
With CCC(C)CN1C(=O)NC(c2ccccc2)C(C(=O)OC)=C1C (centres undefined) the Potency was inconclusive: 0.106 µM [inhibitor, full curve, poor fit].
For Cc1cccc(OCCc2c(C)[nH]c(=S)[nH]c2=O)c1, the Potency was inconclusive: 35.5 µM [inhibitor, single point].
For Cc1ccc(C)c(N2CCN(S(=O)(=O)c3c(C(=O)N4CCC(C)CC4)c(C)n(C)c3C)CC2)c1, the Potency was inconclusive: 25.1 µM [inhibitor, single point].
In the case of Cc1ccc(NC(=O)C2CCCN(C(=O)c3ccc(Cl)cc3)C2)cc1C (centres undefined), the Potency is reported as inconclusive: 35.5 µM [inhibitor, single point].
With COC(=O)c1[nH]c2ccc(C)cc2c1NC(=O)CCN1CCN(Cc2ccc3c(c2)OCO3)CC1 the Potency was “inactive”.
In the case of CC(=O)Nc1ccc(S(=O)(=O)NC(CC(=O)NCCCN2CCOCC2)C(C)C)cc1 (centres undefined), the Potency is reported as “inactive”.
With Cc1cc(C)c(NC(=O)C2CCCO2)c(C)c1NC(=O)C1CCCO1 (centres undefined) the Potency was “inactive”.
With Cc1c([N+](=O)[O-])cc(C(=O)NCc2ccc(F)cc2)cc1[N+](=O)[O-] the Potency was “inactive”.
With COc1ccc(-c2cc3ncc(C)n3c(Nc3ncccc3C(N)=O)n2)cc1OC the Potency was inconclusive: 2.91 µM [inhibitor, full curve, poor fit].
For CCN(CCCCCN(C)C)Cc1cc2ccccc2o1, the Potency was inconclusive: 10 µM [inhibitor, partial curve, poor fit].
In the case of Cc1ccc(S(=O)(=O)NC(=NCc2ccccc2)c2ccc(F)cc2)cc1, the Potency is reported as “inactive”.
With O=C(COC(=O)COc1ccccc1F)Nc1ccc(Cl)cn1 the Potency was “inactive”.
In the case of Cc1cccc(N2CC(C(=O)Nc3ccc(S(=O)(=O)N4CCOCC4)cc3)CC2=O)c1C (centres undefined), the Potency is reported as “inactive”.
In the case of Cc1sc(NC(=O)c2ccccc2)c(C(c2ccc(Cl)cc2)N2CCN(CCO)CC2)c1C (centres undefined), the Potency is reported as inconclusive: 14.1 µM [inhibitor, single point].
With Cc1cc(C)cc(NCc2cc(=O)oc3cc(-c4ccccc4)c(O)cc23)c1 the Potency was “inactive”.
In the case of Cc1nnc(NC(=O)c2ccc(F)c(S(=O)(=O)N3CCCCC3)c2)s1, the Potency is reported as inconclusive: 35.5 µM [activator, single point].
In the case of Cc1cccnc1NC(=O)Cn1nc(-c2ccccc2)oc1=S, the Potency is reported as inconclusive: 3.16 µM [inhibitor, single point].
For Cc1ccc(-n2cc(CNCCCN3CCCC3=O)c(-c3ccc(F)cc3)n2)cc1, the Potency was inconclusive: 35.5 µM [inhibitor, partial curve, poor fit].
With C=C(CN(C)C)C(=O)c1ccc(OC2OC(COC(C)=O)C(OC(C)=O)C(OC(C)=O)C2OC(C)=O)cc1 (centres undefined) the Potency was inconclusive: 35.5 µM [inhibitor, partial curve, poor fit].
With COc1ccccc1-c1cn(S(=O)(=O)c2ccc(F)cc2)nc1N the Potency was “inactive”.
With CCOc1cccc(CN2CCCC(N3CCc4ccccc4C3)C2)c1O (centres undefined) the Potency was inconclusive: 6.31 µM [activator, single point].
For Cc1cc(NC(=O)C(C)Sc2nc(-c3cccs3)nc3ccccc23)no1 (centres undefined), the Potency was inconclusive: 35.5 µM [inhibitor, single point].
In the case of Cc1cccc(NS(=O)(=O)c2cccc(C(=O)N3CCN(S(=O)(=O)c4ccccc4)CC3)c2)c1, the Potency is reported as inconclusive: 12.6 µM [inhibitor, single point].
In the case of CS(=O)(=O)c1cccc(C(=O)Nc2ccc3c(c2)OCCCO3)c1, the Potency is reported as “inactive”.
For COc1ccc(NC(=O)N2CCc3cc(OC)c(OC)cc3C2)cc1, the Potency was inconclusive: 11.2 µM [inhibitor, partial curve, poor fit].
In the case of COCCCNC(=O)c1cc2c(-c3cccc(OC)c3)nn(C)c2s1, the Potency is reported as inconclusive: 5.01 µM [inhibitor, partial curve] and inconclusive: 35.5 µM [inhibitor, single point].
With O=C(NCc1ccccc1Cl)c1ccccc1NC(=O)c1nsc2ccccc12 the Potency was “inactive”.
In the case of CCCCc1ccc(NC(=O)C(C)CC)cc1 (centres undefined), the Potency is reported as “inactive”.
With NC(=O)C1CCN(C(=O)C2(NC(=O)Nc3cccc(F)c3)CCCCC2)CC1 the Potency was inconclusive: 35.5 µM [inhibitor, single point].
With Oc1ccccc1-c1cc(-c2ccco2)[nH]n1 the Potency was inconclusive: 2.06 µM [activator, partial curve, poor fit].
In the case of Cc1ccc(C(=O)NC(C)CCc2ccccc2)cc1[N+](=O)[O-] (centres undefined), the Potency is reported as “inactive”.
In the case of C/C(CC(=O)Nc1ccccc1-c1ccccc1)=N\NC(=O)COc1ccc(C)cc1Br, the Potency is reported as inconclusive: 1 µM [inhibitor, full curve, poor fit].
In the case of O=C1NC(=O)/C(=C/c2ccc3nccnc3c2)S1, the Potency is reported as inconclusive: 8.2 µM [activator, partial curve, poor fit].
With CC1CCC/C(=N\NC(=S)Nc2ccccc2)C1 (centres undefined) the Potency was inconclusive: 29.1 µM [activator, single point].
In the case of CCOC(=O)C(O)(c1ccc(N(CC)S(=O)(=O)c2ccc(C)cc2)cc1)C(F)(F)F (centres undefined), the Potency is reported as inconclusive: 2.31 µM [inhibitor, partial curve, poor fit].
In the case of NS(=O)(=O)c1ccc(O)c(NC(=O)c2ccc([N+](=O)[O-])o2)c1, the Potency is reported as inconclusive: 25.1 µM [inhibitor, single point].
In the case of CCCCCn1c(CCCNC(=O)c2ccc(Cl)cc2)nc2ccccc21, the Potency is reported as “inactive”.
For COC(=O)C1=C(C)N(C(C)C)C(=O)C1(NC(=O)c1ccccc1OC)C(F)(F)F (centres undefined), the Potency was “inactive”.
In the case of Cc1cc(C(=O)N/N=C/c2sccc2C)no1, the Potency is reported as “inactive”.
With Oc1c(C(Nc2cccc(C(F)(F)F)c2)c2ccncc2)ccc2cccnc12 (centres undefined) the Potency was inconclusive: 2.82 µM [inhibitor, partial curve, poor fit].
For CCOC(=O)C1=C(COC(=O)/C=C/c2ccc(OC)cc2OC)NC(=O)NC1C (centres undefined), the Potency was inconclusive: 11.2 µM [inhibitor, partial curve, poor fit].
With O=C(CCN1CCN(S(=O)(=O)c2ccc(Br)cc2)CC1)Nc1ccccc1F the Potency was inconclusive: 11.2 µM [inhibitor, partial curve, poor fit].
For O=C(Nc1ccccc1)c1cc(S(=O)(=O)NCc2ccncc2)ccc1Cl, the Potency was inconclusive: 35.5 µM [inhibitor, single point].
For Cc1ccc(C2=NN(CC(=O)NCCN(CC(C)C)CC(C)C)C(=O)CC2)cc1, the Potency was inconclusive: 0.562 µM [activator, partial curve, poor fit].
In the case of CCOC(=O)CSc1nc2cc3c(cc2cc1C#N)OCO3, the Potency is reported as inconclusive: 0.282 µM [activator, full curve, poor fit].
In the case of COc1ccc(S(=O)(=O)Nc2cc3c4c(c2)CCN4C(=O)CC3)cc1, the Potency is reported as “inactive”.
In the case of CCS(=O)(=O)c1ccc(C=NNc2nc3ccccc3o2)cc1, the Potency is reported as inconclusive: 1.12 µM [activator, single point].
With COc1ccc(C(=O)COC(=O)Cn2c(C)csc2=O)c(OC)c1 the Potency was “inactive”.
With CC(C)OCCCNc1ncnc2c1[nH]c1ccccc12 the Potency was inconclusive: 23.1 µM [inhibitor, single point].
In the case of CC(C)Cn1c(-c2ccc(C#N)cc2)nc2c1c(=O)[nH]c(=O)n2CC(C)C, the Potency is reported as inconclusive: 17.8 µM [inhibitor, partial curve, poor fit].
For Nc1nc(Nc2ccccc2)nc(NC2CCCCC2)c1[N+](=O)[O-], the Potency was inconclusive: 20 µM [inhibitor, partial curve, poor fit].
For O=C1NC(=O)N(c2ccc3c(c2)OCO3)C(=O)/C1=C/c1cccs1, the Potency was inconclusive: 35.5 µM [inhibitor, single point].
With Cc1ccc2nc(SCC(=O)Nc3cc([N+](=O)[O-])ccc3F)[nH]c2c1 the Potency was “inactive”.
For CS(=O)(=O)Nc1ccc(-c2cc(-c3ccccc3)cc(C(N)=O)c2N)cc1, the Potency was inconclusive: 35.3 µM [inhibitor, single point].
In the case of CCCn1cnc2sc(CC)cc2c1=O, the Potency is reported as “inactive”.
In the case of CCCCNC(=O)CSc1nnc(C)c2c(C)n(-c3ccccc3)nc12, the Potency is reported as “inactive”.
With CCOc1ccc(C(CC(=O)O)NC(=O)C(Sc2ccccc2)c2ccccc2)cc1 (centres undefined) the Potency was “inactive”.
For COc1ccccc1/C=N\Nc1cc(C)nc(-n2nc(C)cc2C)n1, the Potency was inconclusive: 15.8 µM [inhibitor, single point].
With CCc1cc2c(C)cc(C)cc2nc1SCC(=O)Nc1cc(C)on1 the Potency was inconclusive: 6.31 µM [inhibitor, single point].
In the case of O=C(O)c1cc([N+](=O)[O-])ccc1NCc1ccccc1, the Potency is reported as inconclusive: 0.794 µM [activator, single point].
In the case of CCOc1cc(S(=O)(=O)N(CC)CC)c(OCC)cc1-n1cnnn1, the Potency is reported as inconclusive: 1.46 µM [activator, full curve].
With Cc1ccc(S(=O)(=O)c2cn(C)c3cc(N4CCCC(C)C4)c(F)cc3c2=O)c(C)c1 (centres undefined) the Potency was “inactive”.
In the case of COc1ccc(CNc2ccc(S(N)(=O)=O)cc2)cc1, the Potency is reported as “inactive”.
For CC(C)N(Cc1ccccc1)C(=O)CCS(=O)(=O)c1ccc2c(c1)oc(=O)n2C, the Potency was inconclusive: 14.1 µM [activator, single point].
For Cc1ccc2c(c1)N(CC(=O)N1CCCCC1c1cccnc1)C(=O)CO2 (centres undefined), the Potency was inconclusive: 29.1 µM [inhibitor, single point].
In the case of COc1ccccc1OCC(=O)Nc1nc(-c2ccc(Br)cc2)ns1, the Potency is reported as “inactive”.
In the case of CN(C)Cc1c(O)ccc2occ(C(=O)c3ccccc3)c12, the Potency is reported as “inactive”.
With Cc1ccc(NC(=O)c2cc(NC(=O)CCC(=O)O)ccc2N2CCCCC2)cc1 the Potency was “inactive”.

— PubChem BioAssay AID540256 (National Center for Advancing Translational Sciences (NCATS), 2011)
Potency is read from the fitted curve at half-maximal effect.
